Data published in US20240368354A1, “STEROID ACID-BASED HYDROGELS” (priority 2021, published 2024).
For part of these data: Not every detail of the peptide structures is certain; ends, links or a residue may be inferred. Some of these results come from one statement about several compounds together. Where a SMILES comes first, the peptide text is derived from it. Bridges are numbered along the chain shown (N, C = ends). Roman numbers before positions name the chains, in order. The star is where a group is joined. Chenodeoxycholyl = C[C@H](CCC(=O)*)[C@H]1CC[C@H]2[C@@H]3[C@H](O)C[C@@H]4C[C@H](O)CC[C@]4(C)[C@H]3CC[C@]12C; Cholyl = C[C@H](CCC(=O)*)[C@H]1CC[C@H]2[C@@H]3[C@H](O)C[C@@H]4C[C@H](O)CC[C@]4(C)[C@H]3C[C@H](O)[C@]12C

Assays:
[1] = Hydrogel formation of dimerized steroid acid-peptide conjugates; type: physicochemical; conditions: for hydrogel formation in dimerized form: dimerized with DIPEA in DMSO, overnight 37° C. thermomixer, solvents methanol:water (40:60), DMSO or water
[2] = Hydrogel formation of steroid acid-peptide monomer conjugates upon resuspension in solvent; type: physicochemical; conditions: monomers, room temperature
Experimental: Specific hydrogel formation was conducted by resuspending the powder of each steroid acid-peptide monomer or dimer conjugate in phosphate buffered saline (PBS) 1X (pH 7.4), pure water, complete cell medium (DMEM), DMSO, or alcohol:water mixtuLes (e.g., methanol:water (40:60)) at room temperature or 37° C. at a concentration between 6-30 mg/mL.
Hydrogel formation was evaluated upon dissolution of the different peptide or steroid acid-peptide conjugates described in FIG. 1 in different solvents. […] Hydrogel structure (soft vs. hard) and color/clarity (translucent vs. opaque) varied among the different conditions. […] At concentrations lower than 10 mg/mL, all steroid acid-hnRNPA1 NLS conjugates tested formed liquid droplets in PBS at room temperature. Monomers of GWG-SV40NLS conjugated to steroid acids were also shown to form hydrogels (data not shown).

CSCC[C@H](NC(=O)[C@@H]1CCCN1C(=O)CNC(=O)[C@H](Cc1ccccc1)NC(=O)[C@H](CC(N)=O)NC(=O)[C@H](CO)NC(=O)[C@H](CSSC[C@H](NC(=O)CC[C@@H](C)[C@H]1CC[C@H]2[C@@H]3[C@H](O)C[C@@H]4C[C@H](O)CC[C@]4(C)[C@H]3CC[C@]12C)C(=O)N[C@@H](CO)C(=O)N[C@@H](CC(N)=O)C(=O)N[C@@H](Cc1ccccc1)C(=O)NCC(=O)N1CCC[C@H]1C(=O)N[C@@H](CCSC)C(=O)N[C@@H](CCCCN)C(=O)NCC(=O)NCC(=O)N[C@@H](CC(N)=O)C(=O)N[C@@H](Cc1ccccc1)C(=O)NCC(=O)NCC(=O)N[C@@H](CCCNC(=N)N)C(=O)N[C@@H](CO)C(=O)N[C@@H](CO)C(=O)NCC(=O)N1CCC[C@H]1C(=O)N[C@@H](Cc1ccc(O)cc1)C(N)=O)NC(=O)CC[C@@H](C)[C@H]1CC[C@H]2[C@@H]3[C@H](O)C[C@@H]4C[C@H](O)CC[C@]4(C)[C@H]3CC[C@]12C)C(=O)N[C@@H](CCCCN)C(=O)NCC(=O)NCC(=O)N[C@@H](CC(N)=O)C(=O)N[C@@H](Cc1ccccc1)C(=O)NCC(=O)NCC(=O)N[C@@H](CCCNC(=N)N)C(=O)N[C@@H](CO)C(=O)N[C@@H](CO)C(=O)NCC(=O)N1CCC[C@H]1C(=O)N[C@@H](Cc1ccc(O)cc1)C(N)=O [Dimerized CDCA-hnRNPA1 M9 NLS] (I: Chenodeoxycholyl-CSNFGPMKGGNFGGRSSGPY-NH2 / II: Chenodeoxycholyl-CSNFGPMKGGNFGGRSSGPY-NH2; disulfide I:1-II:1)
hydrogel formation in dimerized form [1]: maintained its ability to form a hydrogel

CC[C@H](C)[C@H](NC(=O)CNC(=O)[C@H](CSSC[C@H](NC(=O)CC[C@@H](C)[C@H]1CC[C@H]2[C@@H]3[C@H](O)C[C@@H]4C[C@H](O)CC[C@]4(C)[C@H]3C[C@H](O)[C@]12C)C(=O)NCC(=O)N[C@H](C(=O)NCC(=O)N[C@@H](C)C(=O)N[C@H](C(=O)N[C@@H](CC(C)C)C(=O)N[C@@H](CCCCN)C(=O)N[C@H](C(=O)N[C@@H](CC(C)C)C(=O)N[C@H](C(=O)N[C@H](C(=O)NCC(=O)N[C@@H](CC(C)C)C(=O)N1CCC[C@H]1C(=O)N[C@@H](C)C(=O)N[C@@H](CC(C)C)C(=O)N[C@H](C(=O)N[C@@H](CO)C(=O)N[C@@H](Cc1c[nH]c2ccccc12)C(=O)N[C@H](C(=O)N[C@@H](CCCCN)C(=O)N[C@@H](CCCNC(=N)N)C(=O)N[C@@H](CCCCN)C(=O)N[C@@H](CCCNC(=N)N)C(=O)N[C@@H](CCC(N)=O)C(=O)N[C@@H](CCC(N)=O)C(N)=O)[C@@H](C)CC)[C@@H](C)CC)[C@@H](C)O)[C@@H](C)O)C(C)C)C(C)C)[C@@H](C)CC)NC(=O)CC[C@@H](C)[C@H]1CC[C@H]2[C@@H]3[C@H](O)C[C@@H]4C[C@H](O)CC[C@]4(C)[C@H]3C[C@H](O)[C@]12C)C(=O)NCC(=O)N[C@@H](C)C(=O)N[C@H](C(=O)N[C@@H](CC(C)C)C(=O)N[C@@H](CCCCN)C(=O)N[C@H](C(=O)N[C@@H](CC(C)C)C(=O)N[C@H](C(=O)N[C@H](C(=O)NCC(=O)N[C@@H](CC(C)C)C(=O)N1CCC[C@H]1C(=O)N[C@@H](C)C(=O)N[C@@H](CC(C)C)C(=O)N[C@H](C(=O)N[C@@H](CO)C(=O)N[C@@H](Cc1c[nH]c2ccccc12)C(=O)N[C@H](C(=O)N[C@@H](CCCCN)C(=O)N[C@@H](CCCNC(=N)N)C(=O)N[C@@H](CCCCN)C(=O)N[C@@H](CCCNC(=N)N)C(=O)N[C@@H](CCC(N)=O)C(=O)N[C@@H](CCC(N)=O)C(N)=O)[C@@H](C)CC)[C@@H](C)CC)[C@@H](C)O)[C@@H](C)O)C(C)C)C(C)C [dimerized CA-Melittin]
hydrogel consistency ([1]; after dimerization in DMSO): semi-liquid-solid hydrogel (very viscous solution)
hydrogel formation in dimerized form [1]: able to form a hydrogel having a softer texture

CSCC[C@H](NC(=O)[C@H](CSSC[C@H](NC(=O)CC[C@@H](C)[C@H]1CC[C@H]2[C@@H]3[C@H](O)C[C@@H]4C[C@H](O)CC[C@]4(C)[C@H]3C[C@H](O)[C@]12C)C(=O)N[C@@H](CCSC)C(=O)NCC(=O)N[C@@H](CCCNC(=N)N)C(=O)N[C@H](C(=O)N[C@@H](CCCNC(=N)N)C(=O)N[C@H](C(=O)N[C@@H](CCCCN)C(=O)N[C@H](C(=O)N[C@H](C(=O)N[C@@H](CCCCN)C(=O)N[C@@H](CCCCN)C(=O)N[C@@H](C)C(=O)N[C@@H](C)C(=O)NCC(=O)NCC(N)=O)C(C)C)[C@@H](C)O)[C@@H](C)O)C(C)C)NC(=O)CC[C@@H](C)[C@H]1CC[C@H]2[C@@H]3[C@H](O)C[C@@H]4C[C@H](O)CC[C@]4(C)[C@H]3C[C@H](O)[C@]12C)C(=O)NCC(=O)N[C@@H](CCCNC(=N)N)C(=O)N[C@H](C(=O)N[C@@H](CCCNC(=N)N)C(=O)N[C@H](C(=O)N[C@@H](CCCCN)C(=O)N[C@H](C(=O)N[C@H](C(=O)N[C@@H](CCCCN)C(=O)N[C@@H](CCCCN)C(=O)N[C@@H](C)C(=O)N[C@@H](C)C(=O)NCC(=O)NCC(N)=O)C(C)C)[C@@H](C)O)[C@@H](C)O)C(C)C [dimerized CA-NLS1 RPS17] (I: Cholyl-CMGRVRTKTVKKAAGG-NH2 / II: Cholyl-CMGRVRTKTVKKAAGG-NH2; disulfide I:1-II:1)
hydrogel formation in dimerized form [1]: able to form a hydrogel

CA-hnRNPA1 NLS: cholic acid (CA) conjugated to hnRNPA1 M9 NLS peptide (SEQ ID NO: 4) (SNFGPMKGGNFGGRSSGPY; cholic acid conjugate)
incubation time after which a hydrogel formed ([2]; 20 mg/mL in PBS): at least 3 hours

GCDCA-hnRNPA1 NLS: glycochenodeoxycholic acid (GCDCA) conjugated to hnRNPA1 M9 NLS peptide (SEQ ID NO: 4) (SNFGPMKGGNFGGRSSGPY; glycochenodeoxycholic acid conjugate)
incubation time after which a hydrogel formed ([2]; 10 mg/mL in PBS): 1 to 2 days
incubation time after which a hydrogel formed ([2]; 20 mg/mL in PBS): at least 3 hours

GDCA-hnRNPA1 NLS: glycodeoxycholic acid (GDCA) conjugated to hnRNPA1 M9 NLS peptide (SEQ ID NO: 4) (SNFGPMKGGNFGGRSSGPY; glycodeoxycholic acid conjugate)
incubation time after which a hydrogel formed ([2]; 10 mg/mL in PBS): 1 to 2 days
incubation time after which a hydrogel formed ([2]; 20 mg/mL in PBS): at least 3 hours

GUDCA-hnRNPA1 NLS: glycoursodeoxycholic acid (GUDCA) conjugated to hnRNPA1 M9 NLS peptide (SEQ ID NO: 4) (SNFGPMKGGNFGGRSSGPY; glycoursodeoxycholic acid conjugate)
incubation time after which a hydrogel formed ([2]; 10 mg/mL in PBS): 1 to 2 days
incubation time after which a hydrogel formed ([2]; 20 mg/mL in PBS): at least 3 hours

LCA-hnRNPA1 NLS: lithocholic acid (LCA) conjugated to hnRNPA1 M9 NLS peptide (SEQ ID NO: 4) (SNFGPMKGGNFGGRSSGPY; lithocholic acid conjugate)
incubation time after which a hydrogel formed ([2]; 20 mg/mL in PBS): at least 3 hours
